Data as given in PubChem BioAssay AID1671195 (Yale University, 2021)
Here is one part, drawn at random, of about 22,000 reagents tested. About 1,510 of them (6.9%) were called active. 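Active includes knockdowns raising or lowering LDL uptake; positive z-scores mean more uptake, negative mean less.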 The numbers tell different reagents against one gene apart.

Assay: 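Genes whose knockdown alters LDL uptake in liver cancer cells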 (primary screen)
Cells: human Huh7 hepatoma cells
Reagent: siRNA pool against human genes, 18 nM
Timing: about 2 to 2.5 days of knockdown, then 8 h LDL uptake
Treatment: DiI-labelled LDL at 30 µg/ml for 8 h, in lipoprotein-deficient serum medium
Measured: 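Per-cell DiI-LDL intensity by automated imaging; well means scaled to the plate median and given as a robust z-score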
Reading the numbers: robust z-score: higher = more LDL uptake after knockdown
Call rule: 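a gene counts as active if at least two replicate z-scores exceed ±2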

LYRM1 (GeneID 57149) → robust z-score, replicate 1: -0.512; robust z-score, replicate 2: -0.931; robust z-score, replicate 3: 0.677; Call: inactive
LOC440767 (retired record) (GeneID 440767) → robust z-score, replicate 1: -0.416; robust z-score, replicate 2: 0.77; robust z-score, replicate 3: 0.625; Call: inactive
LINC01115 (GeneID 339822) → robust z-score, replicate 1: -0.0943; robust z-score, replicate 2: -0.164; robust z-score, replicate 3: 0.151; Call: inactive
LOC440438 (retired record) (GeneID 440438) → robust z-score, replicate 1: 0.686; robust z-score, replicate 2: 0.983; robust z-score, replicate 3: 0.931; Call: inactive

A run of entries from the list above, for reference:
LYRM1 (GeneID 57149) → robust z-score, replicate 1: -0.512; robust z-score, replicate 2: -0.931; robust z-score, replicate 3: 0.677; Call: inactive
LOC440767 (retired record) (GeneID 440767) → robust z-score, replicate 1: -0.416; robust z-score, replicate 2: 0.77; robust z-score, replicate 3: 0.625; Call: inactive

Continued:
HLF (GeneID 3131) → robust z-score, replicate 1: -0.196; robust z-score, replicate 2: -1.91; robust z-score, replicate 3: -0.893; Call: inactive
HOXA1 (GeneID 3198) → robust z-score, replicate 1: 0.894; robust z-score, replicate 2: 1.02; robust z-score, replicate 3: 0.551; Call: inactive
INPP4A (GeneID 3631) → robust z-score, replicate 1: -0.842; robust z-score, replicate 2: -0.0333; robust z-score, replicate 3: -0.329; Call: inactive
LOC441428 (retired record) (GeneID 441428) → robust z-score, replicate 1: 0.128; robust z-score, replicate 2: 0.244; robust z-score, replicate 3: 0.0704; Call: inactive
PCMT1 (GeneID 5110) → robust z-score, replicate 1: -1.58; robust z-score, replicate 2: -0.957; robust z-score, replicate 3: -1.29; Call: inactive
BTBD8 (GeneID 284697) #1 → robust z-score, replicate 1: 1.2; robust z-score, replicate 2: -0.786; robust z-score, replicate 3: 0.429; Call: inactive
BTBD8 (GeneID 284697) #2 → robust z-score, replicate 1: -1.11; robust z-score, replicate 2: -1.11; robust z-score, replicate 3: -1.11; Call: inactive
PIGU (GeneID 128869) → robust z-score, replicate 1: -0.096; robust z-score, replicate 2: -0.959; robust z-score, replicate 3: -0.281; Call: inactive
